Data as given in doi:10.1101/2025.08.01.668199, “Vacuolar Phosphatidylinositol 3,4,5-trisphosphate controls fusion through binding Vam7, and membrane microdomain assembly” (bioRxiv, 2025).
Results are given in words; binding and its absence hold for the method and conditions named. In cells and extracts the contact can be indirect. Some binding calls cover weakened binding; strength is not graded here.

The chains behind the UniProt entries cited, without tags or fusion partners.
UniProt P27801: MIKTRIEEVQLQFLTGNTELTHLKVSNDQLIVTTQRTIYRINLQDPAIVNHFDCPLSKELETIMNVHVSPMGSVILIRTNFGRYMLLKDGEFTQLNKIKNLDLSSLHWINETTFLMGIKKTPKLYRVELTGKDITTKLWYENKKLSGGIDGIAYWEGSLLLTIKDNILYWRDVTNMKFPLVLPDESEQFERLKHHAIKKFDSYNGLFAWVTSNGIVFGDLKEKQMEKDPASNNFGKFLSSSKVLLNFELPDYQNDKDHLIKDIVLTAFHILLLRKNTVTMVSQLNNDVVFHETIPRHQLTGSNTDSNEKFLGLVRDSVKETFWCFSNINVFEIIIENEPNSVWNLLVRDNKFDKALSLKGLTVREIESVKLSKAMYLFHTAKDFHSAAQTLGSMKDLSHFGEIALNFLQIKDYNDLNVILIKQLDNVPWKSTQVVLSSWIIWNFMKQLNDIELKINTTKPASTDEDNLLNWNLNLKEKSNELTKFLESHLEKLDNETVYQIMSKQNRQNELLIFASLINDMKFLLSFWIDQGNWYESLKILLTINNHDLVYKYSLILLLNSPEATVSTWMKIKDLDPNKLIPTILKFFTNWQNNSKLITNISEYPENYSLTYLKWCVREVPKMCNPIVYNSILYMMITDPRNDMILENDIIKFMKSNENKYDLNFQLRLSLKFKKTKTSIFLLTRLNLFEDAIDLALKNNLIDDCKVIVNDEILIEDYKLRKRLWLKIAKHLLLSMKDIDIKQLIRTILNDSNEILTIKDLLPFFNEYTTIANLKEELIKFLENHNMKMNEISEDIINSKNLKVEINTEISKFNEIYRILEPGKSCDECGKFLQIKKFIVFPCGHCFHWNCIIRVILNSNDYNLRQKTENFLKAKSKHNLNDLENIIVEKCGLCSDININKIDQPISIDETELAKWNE
UniProt P20795: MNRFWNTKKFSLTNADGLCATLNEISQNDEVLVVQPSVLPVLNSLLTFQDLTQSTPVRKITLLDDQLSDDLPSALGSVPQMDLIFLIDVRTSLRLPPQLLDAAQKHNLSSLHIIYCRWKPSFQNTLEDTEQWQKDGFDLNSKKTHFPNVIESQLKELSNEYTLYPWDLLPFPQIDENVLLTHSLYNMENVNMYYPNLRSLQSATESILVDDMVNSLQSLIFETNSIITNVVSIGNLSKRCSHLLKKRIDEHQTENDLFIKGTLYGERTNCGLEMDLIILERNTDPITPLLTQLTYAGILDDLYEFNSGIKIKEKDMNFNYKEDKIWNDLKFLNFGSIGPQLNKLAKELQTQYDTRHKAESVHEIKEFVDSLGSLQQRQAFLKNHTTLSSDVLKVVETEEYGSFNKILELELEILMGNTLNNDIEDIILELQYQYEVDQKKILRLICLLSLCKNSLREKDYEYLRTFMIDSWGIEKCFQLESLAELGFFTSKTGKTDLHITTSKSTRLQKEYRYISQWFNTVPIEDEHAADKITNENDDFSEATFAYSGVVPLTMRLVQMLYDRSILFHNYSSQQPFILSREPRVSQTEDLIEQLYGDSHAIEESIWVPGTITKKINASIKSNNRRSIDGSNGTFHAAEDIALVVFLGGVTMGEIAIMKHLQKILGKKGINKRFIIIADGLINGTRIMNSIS
UniProt Q04338: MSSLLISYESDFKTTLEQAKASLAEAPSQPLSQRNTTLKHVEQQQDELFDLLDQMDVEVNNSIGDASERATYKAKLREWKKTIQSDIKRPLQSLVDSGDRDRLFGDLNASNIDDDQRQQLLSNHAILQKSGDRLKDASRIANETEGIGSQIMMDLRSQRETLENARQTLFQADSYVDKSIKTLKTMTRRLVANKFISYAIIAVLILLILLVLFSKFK

T1: CBP-Vam3 (Vam3 with an internal calmodulin binding peptide between the N-terminal helical Habc domain and the SNARE domain) (S. cerevisiae (expressed in strain BJ3505)) (UniProt Q12241)
T1 sequence: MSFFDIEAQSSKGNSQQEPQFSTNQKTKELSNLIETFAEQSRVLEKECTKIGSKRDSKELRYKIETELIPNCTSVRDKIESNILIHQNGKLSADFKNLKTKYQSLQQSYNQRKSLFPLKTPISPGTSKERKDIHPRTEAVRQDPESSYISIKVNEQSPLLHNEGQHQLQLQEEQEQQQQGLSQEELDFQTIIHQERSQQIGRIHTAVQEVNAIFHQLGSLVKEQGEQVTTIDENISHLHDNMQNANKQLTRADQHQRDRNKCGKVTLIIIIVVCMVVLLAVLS

B1: R-SNARE Nyv1 (protein, UniProt Q12255 1-253)
chain: MKRFNVSYVEVIKNGETISSCFQPFQKNENYGTITSANEQITPVIFHNLIMDMVLPKVVPIKGNKVTKMSMNLIDGFDCFYSTDDHDPKTVYVCFTLVDMPKILPIRILSGLQEYESNATNELLSSHVGQILDSFHEELVEYRNQTLNSSGNGQSSNGNGQNTISDIGDATEDQIKDVIQIMNDNIDKFLERQERVSLLVDKTSQLNSSSNKFRRKAVNIKEIMWWQKVKNITLLTFTIILFVSAAFMFFYLW
B2: soluble Qc-SNARE Vam7 (protein, UniProt P32912 1-316)
chain: MAANSVGKMSEKLRIKVDDVKINPKYVLYGVSTPNKRLYKRYSEFWKLKTRLERDVGSTIPYDFPEKPGVLDRRWQRRYDDPEMIDERRIGLERFLNELYNDRFDSRWRDTKIAQDFLQLSKPNVSQEKSQQHLETADEVGWDEMIRDIKLDLDKESDGTPSVRGALRARTKLHKLRERLEQDVQKKSLPSTEVTRRAALLRSLLKECDDIGTANIAQDRGRLLGVATSDNSSTTEVQGRTNNDLQQGQMQMVRDQEQELVALHRIIQAQRGLALEMNEELQTQNELLTALEDDVDNTGRRLQIANKKARHFNNSA

Tests used:
[1] = target: T1, CBP-Vam3 (Vam3 with an internal calmodulin binding peptide between the N-terminal helical Habc domain and the SNARE domain) (S. cerevisiae (expressed in strain BJ3505)); assay: pull-down; trans-SNARE complex isolation: 15X fusion reactions of CBP-VAM3 nyv1Δ and VAM3 NYV1 vacuoles, 60 min 27°C, buffer alone (also with 2 mM NEM or 50-200 nM GST-PTEN); membranes pelleted, solubilised in 20 mM Tris-Cl pH 7.5, 150 mM NaCl, 1 mM MgCl2, 0.5% Nonidet P-40 alternative, 10% …; CBP-Vam3 held on calmodulin beads with 2 mM CaCl2 overnight at 4°C; immunoblot
[2] = target: T1, CBP-Vam3 (Vam3 with an internal calmodulin binding peptide between the N-terminal helical Habc domain and the SNARE domain) (S. cerevisiae (expressed in strain BJ3505)); assay: pull-down; as a1, fusion reactions treated with 50, 100, 150 or 200 nM GST-PTEN (removes PI(3,4,5)P3); CBP-Vam3 held on calmodulin beads; immunoblot
[3] = target: T1, CBP-Vam3 (Vam3 with an internal calmodulin binding peptide between the N-terminal helical Habc domain and the SNARE domain) (S. cerevisiae (expressed in strain BJ3505)); assay: pull-down; as a1, fusion reactions treated with 2 mM NEM (prevents SNARE priming); CBP-Vam3 held on calmodulin beads; immunoblot

Molecule	binding [1]	binding [2]	binding [3]
HOPS subunit Vps18 (from UniProt P27801 1-918)	binds	–	–
HOPS subunit Vps33 (from UniProt P20795 1-691)	binds	–	–
Qb-SNARE Vti1 (from UniProt Q04338 1-217)	binds	no binding (condition: with 200 nM GST-PTEN)	–
B1	binds	no binding (condition: with GST-PTEN (50-200 nM))	no binding (condition: with 2 mM NEM)
B2	binds	–	–
